Here are results for 39 molecules from PubChem BioAssay AID2685 (National Center for Advancing Translational Sciences (NCATS), 2010).

Some of the results follow. Shown are side measurements of this screen, not its main read-out; they come without a call. The list favours compounds with an active or inconclusive main result. Potencies come from curve fits of mixed quality, noted in brackets.

The experiment is described as follows: qHTS Assay for Lipid Storage Modulators in Drosophila S3 Cells.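 As to cell number change: cells counted by Cell Tracker Red CMTPX staining in the red channel.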 The conditions noted are these: BODIPY lipid droplet fluorescence, 18-24 h; for cell number change: measured here: cell count max response, cells fed with added oleic acid. In short, it runs like this: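 Drosophila S3 cells got compounds at several concentrations plus oleic acid (400 uM solution). Laser-scanning cytometry with 488 nm excitation read lipid droplets at 500-530 nm and cells at 575-640 nm. Percent activity was relative to 20 uM Triacsin C.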
On the technique in general: Quantitative high-throughput screening tests each substance at several concentrations.

Where [1] appears, read: measured here: lipid fluorescence (Fed channel) AC50, cells fed with added oleic acid.
Where [2] appears, read: measured here: cell number channel AC50, cells fed with added oleic acid.

Broadly, the AC50 is the concentration giving half of the maximal activity seen. Lower therefore signals activity at low concentration.

As for `CCC(C(=O)NCc1ccc(C)o1)n1nc(C)c2c(C)n(-c3ccccc3)nc2c1=O` (stereo not given), the cell number change was -13.6%. Moreover, the AC50 under setting [1] was 29.1 µM [falling, single point]. Turning to `CCCC(=O)Oc1ccc(C2NC(=O)c3ccccc3O2)cc1OC` (stereo not given), the cell number change came to 21.2%. The AC50 under setting [2] was 0.461 µM [rising, full curve, poor fit]. Moreover, the AC50 under setting [1] was 0.517 µM [rising, single point]. Take `CC(=O)Nc1ccccc1NC(=O)C/C(C)=N/NC(=O)C(=O)N1CCCCC1`: the cell number change is -8.57%. For the same molecule, under setting [1], the AC50 was 6.51 µM [falling, single point]. Turning to `COc1ccc(C(=O)N2CCC(N3CCN(c4ccccc4)CC3)CC2)cc1OC`, the cell number change was determined as 17.5%. Besides, the AC50 under setting [1] is 18.4 µM [falling, partial curve]. `O=C1c2cccc(OCC(=O)N3CCCc4ccccc43)c2CCN1Cc1ccccc1`: the cell number change turned out to be 4.81%. For the same molecule, under setting [1], the AC50 was 0.82 µM [rising, single point]. As for `Cc1ccc(C)c(N2N=C(C(=O)N(CC(C)C)c3c(N)n(Cc4ccccc4)c(=O)[nH]c3=O)CCC2=O)c1`, the cell number change was determined as 10.8%. For the molecule `CC(C)c1ccc(/C=N/NC(=O)C2CCCC2)cc1`, the AC50 under setting [1] is 29.1 µM [falling, single point]. On to `CCC(=Nc1ccc(N)cc1)C1=C(O)C(C(=O)OC)C(C)(C)CC1=O` (stereo not given), for which the cell number change worked out at 0.559%. The AC50 under setting [1] was 0.082 µM [rising, full curve, poor fit].

With `CC(=O)Nc1ccc(S(=O)(=O)N2CCN(C(=O)c3ncoc3-c3ccccc3F)CC2)cc1`, the cell number change was found to be 5%. `CCC1CO/C(=C(\C(Cl)=C(Cl)Cl)[N+](=O)[O-])N1` (stereo not given): the cell number change came out at 37.9%. The AC50 under setting [2] was 29.1 µM [rising, single point]. In addition, the AC50 under setting [1] is 29.1 µM [rising, single point]. For `O=C(NCC1CCCO1)C1CCN(S(=O)(=O)c2ccc(Br)cc2)CC1` (stereo not given), the cell number change is -0.293%. Also, under setting [1], the AC50 is 1.64 µM [falling, partial curve].

Take `O=S(=O)(c1cc(Cl)ccc1Cl)n1ccnc1`: the cell number change was -58.8%. Besides, the AC50 under setting [2] was 25.9 µM [falling, partial curve, poor fit]. The AC50 under setting [1] was 0.731 µM [falling, full curve]. Regarding `CSc1ccc(CNCC2CCCO2)cc1` (stereo not given), the cell number change turned out to be 0.365%. Take `O=C(N/N=C/c1cccc([N+](=O)[O-])c1)c1cc(-c2ccc3c(c2)OCO3)n[nH]1`: the cell number change is -17%. In addition, the AC50 under setting [1] was 0.58 µM [falling, single point]. As for `CCC(CCC(=O)Nc1ccc(S(N)(=O)=O)cc1)C(=O)O` (stereo not given), the cell number change was -12.5%. For the same molecule, the AC50 under setting [1] was 1.64 µM [falling, full curve]. For `COc1cc(/C=N/NC(=O)COc2ccccc2[N+](=O)[O-])ccc1OC(=O)c1ccco1`, the cell number change came out at 29.6%.

Turning to `Cc1cc(-c2ccco2)n(-c2ccccc2)n1`, the cell number change is -12.3%. In addition, the AC50 under setting [1] was 0.731 µM [falling, single point]. As for `CC(C(=O)Nc1ccc(F)c(F)c1F)N(C)CCOc1ccccc1` (stereo not given), the cell number change was -1.73%. Under setting [1], the AC50 is 8.2 µM [rising, partial curve].

Consider `CS(=O)(=O)c1ccc(N2CCN(c3ccccn3)CC2)c([N+](=O)[O-])c1`, for which the cell number change came to 12.5%.

As to `Cc1ccc(NC(=O)COC(=O)CCC(=O)c2cccs2)cc1C`, the cell number change was -7%. Also, under setting [1], the AC50 was 23.1 µM [falling, partial curve]. Consider `COc1ccccc1Nc1nc(N)nc(CSC(=S)N2CCCCC2C)n1` (stereo not given), for which the cell number change came out at 20.3%. Further, under setting [1], the AC50 is 0.13 µM [rising, full curve, poor fit]. In the case of `N#Cc1cccc(NC(=O)CSc2sc3c(O)cc(=O)[nH]c3c2C#N)c1`, the cell number change is -10.3%. Take `CCC(C)Nc1nc(N)c([N+](=O)[O-])c(NC2CCCCC2)n1` (stereo not given): the cell number change was -10.2%. Under setting [2], the AC50 was 5.8 µM [falling, single point]. Moreover, under setting [1], the AC50 was 3.66 µM [falling, partial curve]. Regarding `Cc1cccc(NC(=O)CSCC(=O)Nc2ccccc2N2CCCC2)c1`, the cell number change came to 47.1%. In addition, the AC50 under setting [2] is 29.1 µM [rising, single point]. For the same molecule, the AC50 under setting [1] was 13 µM [rising, partial curve, poor fit]. With `CCSc1nnc(NC(=O)CSc2nnc(CNC(=O)c3ccc(OC)c(OC)c3)o2)s1`, the cell number change was -4.75%. Moreover, the AC50 under setting [2] was 2.06 µM [rising, partial curve, poor fit]. `COc1ccc(N2C(=O)C(O)C2c2ccc(C)cc2)cc1` (stereo not given): the cell number change is -28.1%. The AC50 under setting [1] was 0.731 µM [falling, full curve]. In the case of `COc1ccc(CN2C(=O)C(CC(C)C)Nc3ncnc(N4CCOCC4)c32)cc1` (stereo not given), the cell number change is -53%. Also, the AC50 under setting [2] was 1.46 µM [falling, full curve, poor fit]. In addition, the AC50 under setting [1] is 0.82 µM [falling, full curve]. Consider `COc1cc(C(=O)Nc2ccc(C(N)=O)cc2)c([N+](=O)[O-])cc1OC`, for which the cell number change was -1.06%. Moreover, under setting [2], the AC50 was 0.0291 µM [rising, full curve, poor fit]. For the same molecule, the AC50 under setting [1] is 0.116 µM [rising, full curve]. Turning to `Cc1cc(N2CCC(C(N)=O)CC2)nc(-c2ccccc2)n1`, the cell number change is -5.22%. With `Cc1cc(C)n(/N=C\c2c(O)ccc3ccccc23)c(=O)c1C(N)=O`, the cell number change is -23.5%.

Regarding `CCCn1c(O)c(N=Nc2ccc3ccccc3n2)c2ccccc21`, the cell number change is -66.7%. The AC50 under setting [2] is 0.651 µM [falling, full curve].

For the molecule `CCCCn1c(N)c(N(CCC(C)C)C(=O)COC(=O)c2ccco2)c(=O)[nH]c1=O`, the cell number change is -7.22%. The AC50 under setting [1] is 14.6 µM [falling, partial curve, poor fit]. Turning to `O=C(CCS(=O)(=O)c1ccc(Cl)cc1)OCC(=O)N1CCCCC1`, the cell number change was -10.1%. Under setting [1], the AC50 is 4.61 µM [falling, partial curve]. `CCOc1cc(/C=N/NC(N)=S)cc(Br)c1OCc1ccccc1C`: the cell number change was -3.95%. With `CCOc1cccc(/C=N/NC(=O)C2CCCC2)c1O`, the cell number change came out at 25.4%. The AC50 under setting [1] was 0.58 µM [rising, single point]. `CC1=NN(c2ccccc2)C(=O)/C1=C\c1cc(C)n(-c2ccccc2)c1C`: the cell number change was 7.45%. Moreover, the AC50 under setting [1] is 6.51 µM [falling, single point]. For the molecule `CC(C)N1CCC(N2CCN(Cc3ccc(-c4ccc(Cl)cc4)o3)CC2CCO)CC1` (stereo not given), the cell number change was 14.5%. In addition, the AC50 under setting [1] was 29.1 µM [rising, single point].

Take `CCN(CC)C(=O)C1=C(C)NC(=O)NC1c1ccccc1F` (stereo not given): the cell number change was -4.59%. For the same molecule, under setting [1], the AC50 is 6.51 µM [falling, partial curve, poor fit].

Turning to `O=S(=O)(NC1CCCC1)c1ccc(S(=O)(=O)N2CCN(c3ccccc3)CC2)cc1`, the cell number change was found to be 78.1%. For the same molecule, the AC50 under setting [2] is 2.91 µM [rising, partial curve].
